# The list shows a part of the results.
# The chains behind the UniProt entries cited, without tags or fusion partners. Where a name states a change or a piece, a line headed by the entry shows the natural chain unless it says otherwise.
# UniProt P28799: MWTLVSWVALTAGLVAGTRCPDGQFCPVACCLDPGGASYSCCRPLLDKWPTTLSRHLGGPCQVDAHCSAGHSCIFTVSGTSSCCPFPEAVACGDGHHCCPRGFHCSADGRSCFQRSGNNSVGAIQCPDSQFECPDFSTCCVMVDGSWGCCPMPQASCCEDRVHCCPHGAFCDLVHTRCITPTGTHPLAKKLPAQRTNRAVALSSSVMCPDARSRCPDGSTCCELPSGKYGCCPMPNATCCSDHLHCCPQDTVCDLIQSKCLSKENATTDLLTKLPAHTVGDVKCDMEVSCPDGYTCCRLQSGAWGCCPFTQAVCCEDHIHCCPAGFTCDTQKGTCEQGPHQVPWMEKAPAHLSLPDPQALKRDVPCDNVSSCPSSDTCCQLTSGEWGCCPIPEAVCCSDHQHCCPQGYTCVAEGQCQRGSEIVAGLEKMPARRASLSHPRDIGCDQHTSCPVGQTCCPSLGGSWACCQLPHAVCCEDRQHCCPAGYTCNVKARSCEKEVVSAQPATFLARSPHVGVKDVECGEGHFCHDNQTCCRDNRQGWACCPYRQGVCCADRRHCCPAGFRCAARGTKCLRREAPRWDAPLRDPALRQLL
# UniProt O14929: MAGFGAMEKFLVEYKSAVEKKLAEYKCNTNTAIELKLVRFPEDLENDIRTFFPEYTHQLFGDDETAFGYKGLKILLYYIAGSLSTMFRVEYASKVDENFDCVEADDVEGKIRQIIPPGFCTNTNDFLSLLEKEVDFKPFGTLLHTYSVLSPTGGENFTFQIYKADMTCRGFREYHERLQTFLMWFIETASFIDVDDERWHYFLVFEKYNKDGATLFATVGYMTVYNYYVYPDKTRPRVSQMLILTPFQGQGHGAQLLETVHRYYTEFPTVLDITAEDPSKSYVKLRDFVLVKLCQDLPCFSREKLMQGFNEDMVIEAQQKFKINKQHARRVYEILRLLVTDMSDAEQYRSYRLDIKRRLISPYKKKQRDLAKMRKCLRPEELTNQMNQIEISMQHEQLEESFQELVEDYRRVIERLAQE
# UniProt O95479: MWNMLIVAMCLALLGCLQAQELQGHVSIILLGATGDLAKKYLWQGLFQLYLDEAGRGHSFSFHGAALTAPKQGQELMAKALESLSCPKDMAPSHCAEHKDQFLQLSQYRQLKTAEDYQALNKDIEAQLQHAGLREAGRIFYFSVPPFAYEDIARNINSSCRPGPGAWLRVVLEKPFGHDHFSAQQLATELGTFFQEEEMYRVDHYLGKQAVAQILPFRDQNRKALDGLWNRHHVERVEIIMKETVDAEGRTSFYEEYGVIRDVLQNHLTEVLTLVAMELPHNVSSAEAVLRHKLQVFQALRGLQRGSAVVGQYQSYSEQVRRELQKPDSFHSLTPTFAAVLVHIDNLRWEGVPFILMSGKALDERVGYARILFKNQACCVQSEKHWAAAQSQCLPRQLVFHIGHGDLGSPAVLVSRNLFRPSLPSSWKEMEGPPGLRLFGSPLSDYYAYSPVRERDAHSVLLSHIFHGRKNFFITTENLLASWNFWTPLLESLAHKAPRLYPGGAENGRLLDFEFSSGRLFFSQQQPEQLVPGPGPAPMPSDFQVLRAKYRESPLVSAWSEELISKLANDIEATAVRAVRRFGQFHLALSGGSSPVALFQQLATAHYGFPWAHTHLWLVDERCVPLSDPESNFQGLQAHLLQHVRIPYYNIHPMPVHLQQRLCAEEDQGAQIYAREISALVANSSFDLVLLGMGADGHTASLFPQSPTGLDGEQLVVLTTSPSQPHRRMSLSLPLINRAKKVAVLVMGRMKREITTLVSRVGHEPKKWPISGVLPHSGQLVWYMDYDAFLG
# UniProt Q9BQ67, whole entry, looked up: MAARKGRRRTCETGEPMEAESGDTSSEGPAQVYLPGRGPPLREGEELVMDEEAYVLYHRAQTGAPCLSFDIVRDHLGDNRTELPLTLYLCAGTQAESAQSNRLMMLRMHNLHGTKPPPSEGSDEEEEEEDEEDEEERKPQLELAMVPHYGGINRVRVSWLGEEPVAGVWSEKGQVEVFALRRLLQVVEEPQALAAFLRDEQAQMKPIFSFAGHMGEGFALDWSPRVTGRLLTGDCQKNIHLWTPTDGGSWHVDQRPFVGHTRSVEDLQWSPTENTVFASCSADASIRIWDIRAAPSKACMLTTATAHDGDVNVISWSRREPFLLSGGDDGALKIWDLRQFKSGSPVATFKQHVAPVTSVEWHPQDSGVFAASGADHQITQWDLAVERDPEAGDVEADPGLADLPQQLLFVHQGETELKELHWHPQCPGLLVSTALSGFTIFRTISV
# UniProt P12081: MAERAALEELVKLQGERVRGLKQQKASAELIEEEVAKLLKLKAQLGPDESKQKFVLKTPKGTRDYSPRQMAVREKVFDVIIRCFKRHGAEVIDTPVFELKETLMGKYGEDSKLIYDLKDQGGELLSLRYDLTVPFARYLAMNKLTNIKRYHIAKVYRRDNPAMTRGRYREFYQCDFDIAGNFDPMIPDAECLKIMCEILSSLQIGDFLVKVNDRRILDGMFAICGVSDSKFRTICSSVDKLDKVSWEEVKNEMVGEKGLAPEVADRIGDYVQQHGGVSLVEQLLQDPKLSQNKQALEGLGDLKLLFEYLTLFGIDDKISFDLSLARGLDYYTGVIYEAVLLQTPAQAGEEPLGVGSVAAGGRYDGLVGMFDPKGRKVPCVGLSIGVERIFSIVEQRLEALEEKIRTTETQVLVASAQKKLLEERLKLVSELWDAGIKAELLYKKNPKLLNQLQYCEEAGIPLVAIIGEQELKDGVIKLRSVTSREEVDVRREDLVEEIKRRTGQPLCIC
# UniProt P49590: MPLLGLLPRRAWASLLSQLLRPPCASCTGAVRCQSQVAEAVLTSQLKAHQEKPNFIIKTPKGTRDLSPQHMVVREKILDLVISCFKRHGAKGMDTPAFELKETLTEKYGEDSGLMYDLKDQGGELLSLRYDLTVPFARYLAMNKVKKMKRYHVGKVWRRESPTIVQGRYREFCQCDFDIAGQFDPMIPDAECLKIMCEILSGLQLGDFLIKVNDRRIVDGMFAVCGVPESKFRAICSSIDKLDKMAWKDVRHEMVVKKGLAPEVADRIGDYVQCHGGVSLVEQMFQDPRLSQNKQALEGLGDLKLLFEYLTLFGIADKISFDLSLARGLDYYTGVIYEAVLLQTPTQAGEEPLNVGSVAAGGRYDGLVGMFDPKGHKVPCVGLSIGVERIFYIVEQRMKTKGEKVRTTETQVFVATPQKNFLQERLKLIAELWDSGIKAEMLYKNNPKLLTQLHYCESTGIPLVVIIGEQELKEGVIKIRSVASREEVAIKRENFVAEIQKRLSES
# UniProt P48637: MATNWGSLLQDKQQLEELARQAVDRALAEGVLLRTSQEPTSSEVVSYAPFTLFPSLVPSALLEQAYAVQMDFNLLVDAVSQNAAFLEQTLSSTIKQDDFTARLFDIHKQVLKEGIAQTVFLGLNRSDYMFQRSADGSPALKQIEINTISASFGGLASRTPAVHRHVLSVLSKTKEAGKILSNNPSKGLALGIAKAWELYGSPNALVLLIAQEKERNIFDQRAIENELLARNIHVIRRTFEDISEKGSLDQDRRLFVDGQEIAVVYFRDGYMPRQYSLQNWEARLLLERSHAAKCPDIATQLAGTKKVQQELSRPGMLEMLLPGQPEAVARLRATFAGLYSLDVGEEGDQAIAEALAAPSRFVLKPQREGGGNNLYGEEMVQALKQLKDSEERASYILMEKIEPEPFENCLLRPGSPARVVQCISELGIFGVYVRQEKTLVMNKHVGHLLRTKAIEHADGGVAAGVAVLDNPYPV
# UniProt P25098: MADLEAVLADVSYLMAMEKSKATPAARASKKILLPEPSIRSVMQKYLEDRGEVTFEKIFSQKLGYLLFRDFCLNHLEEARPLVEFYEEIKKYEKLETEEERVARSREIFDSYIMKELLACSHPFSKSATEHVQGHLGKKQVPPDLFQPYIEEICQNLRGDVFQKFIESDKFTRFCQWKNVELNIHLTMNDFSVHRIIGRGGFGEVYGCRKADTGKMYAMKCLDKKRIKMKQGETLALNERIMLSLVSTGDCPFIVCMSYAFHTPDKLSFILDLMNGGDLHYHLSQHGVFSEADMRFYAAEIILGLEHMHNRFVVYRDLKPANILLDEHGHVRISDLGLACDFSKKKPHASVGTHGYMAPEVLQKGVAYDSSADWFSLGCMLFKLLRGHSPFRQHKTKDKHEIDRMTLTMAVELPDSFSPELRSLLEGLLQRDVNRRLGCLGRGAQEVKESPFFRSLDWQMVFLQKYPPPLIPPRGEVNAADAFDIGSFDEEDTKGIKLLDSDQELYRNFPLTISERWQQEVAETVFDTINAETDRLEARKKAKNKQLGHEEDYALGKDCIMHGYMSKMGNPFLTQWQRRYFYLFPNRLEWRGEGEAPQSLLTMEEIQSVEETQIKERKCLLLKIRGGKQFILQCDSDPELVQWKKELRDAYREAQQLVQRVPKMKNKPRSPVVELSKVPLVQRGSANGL
# UniProt Q8WUA4: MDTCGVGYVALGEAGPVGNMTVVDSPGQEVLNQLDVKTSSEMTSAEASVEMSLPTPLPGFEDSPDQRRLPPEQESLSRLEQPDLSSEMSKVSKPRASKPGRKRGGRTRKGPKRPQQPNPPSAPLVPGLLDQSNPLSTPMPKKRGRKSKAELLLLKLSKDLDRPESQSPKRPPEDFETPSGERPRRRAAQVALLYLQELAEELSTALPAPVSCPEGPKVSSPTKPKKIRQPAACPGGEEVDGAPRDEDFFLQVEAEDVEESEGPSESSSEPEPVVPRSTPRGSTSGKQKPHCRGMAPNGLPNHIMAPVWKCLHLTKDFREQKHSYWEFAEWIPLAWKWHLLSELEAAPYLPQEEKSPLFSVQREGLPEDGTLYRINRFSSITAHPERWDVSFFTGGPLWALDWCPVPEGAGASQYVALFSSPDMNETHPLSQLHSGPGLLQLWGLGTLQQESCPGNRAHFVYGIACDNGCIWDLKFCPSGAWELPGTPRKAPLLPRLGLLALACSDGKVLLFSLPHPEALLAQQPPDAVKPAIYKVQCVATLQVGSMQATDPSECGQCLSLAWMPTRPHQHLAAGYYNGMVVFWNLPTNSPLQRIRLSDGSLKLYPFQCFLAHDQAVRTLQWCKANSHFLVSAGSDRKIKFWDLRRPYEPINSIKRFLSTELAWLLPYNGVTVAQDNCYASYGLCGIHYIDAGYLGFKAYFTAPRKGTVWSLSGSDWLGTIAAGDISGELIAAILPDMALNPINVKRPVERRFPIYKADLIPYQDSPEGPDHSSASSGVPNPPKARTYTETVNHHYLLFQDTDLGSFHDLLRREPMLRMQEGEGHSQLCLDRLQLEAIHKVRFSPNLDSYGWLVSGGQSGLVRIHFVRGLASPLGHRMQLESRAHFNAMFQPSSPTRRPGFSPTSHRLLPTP
# UniProt Q8WW33: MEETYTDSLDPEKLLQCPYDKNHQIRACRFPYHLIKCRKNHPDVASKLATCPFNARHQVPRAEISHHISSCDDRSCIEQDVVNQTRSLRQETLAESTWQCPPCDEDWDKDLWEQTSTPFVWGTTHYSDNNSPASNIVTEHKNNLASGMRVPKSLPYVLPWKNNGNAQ
# UniProt P00390: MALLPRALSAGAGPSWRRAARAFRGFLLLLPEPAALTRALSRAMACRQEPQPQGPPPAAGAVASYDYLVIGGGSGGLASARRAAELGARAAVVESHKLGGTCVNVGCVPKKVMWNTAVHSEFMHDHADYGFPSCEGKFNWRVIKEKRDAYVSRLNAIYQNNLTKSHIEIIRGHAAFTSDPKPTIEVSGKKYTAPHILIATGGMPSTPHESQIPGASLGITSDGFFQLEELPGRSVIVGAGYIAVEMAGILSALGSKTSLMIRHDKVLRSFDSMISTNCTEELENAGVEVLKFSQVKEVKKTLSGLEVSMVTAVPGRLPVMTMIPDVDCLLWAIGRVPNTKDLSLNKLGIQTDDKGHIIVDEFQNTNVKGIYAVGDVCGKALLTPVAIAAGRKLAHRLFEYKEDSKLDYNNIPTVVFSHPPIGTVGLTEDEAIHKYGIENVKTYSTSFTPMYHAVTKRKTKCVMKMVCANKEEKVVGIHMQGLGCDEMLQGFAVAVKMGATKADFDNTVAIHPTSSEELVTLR
# UniProt P15170, whole entry, looked up: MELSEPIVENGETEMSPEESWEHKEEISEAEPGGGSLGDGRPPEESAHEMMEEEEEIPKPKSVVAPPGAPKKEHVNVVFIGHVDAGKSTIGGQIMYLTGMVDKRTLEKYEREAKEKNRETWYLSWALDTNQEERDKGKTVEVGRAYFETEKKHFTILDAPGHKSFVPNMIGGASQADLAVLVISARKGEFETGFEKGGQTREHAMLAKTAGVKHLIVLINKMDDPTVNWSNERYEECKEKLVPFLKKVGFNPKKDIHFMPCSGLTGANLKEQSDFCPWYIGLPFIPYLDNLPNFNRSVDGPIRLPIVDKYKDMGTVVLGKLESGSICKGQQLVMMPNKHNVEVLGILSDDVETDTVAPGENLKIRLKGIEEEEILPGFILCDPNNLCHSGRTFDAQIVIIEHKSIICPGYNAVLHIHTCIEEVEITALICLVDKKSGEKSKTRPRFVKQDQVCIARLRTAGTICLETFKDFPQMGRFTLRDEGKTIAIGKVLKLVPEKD
# Compound: Cc1cc(ccc1-c1ccccc1)C(=O)N1CCCN(CC1)C(=O)CCl [compound 10]
# Test: probe-labelled cysteine peptide fold change vs DMSO (competition) (log2 fold change); higher = less target engagement (more negative = stronger competition)
# Details: THP-1, incubation time: 4 h
# 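Further: competitive profiling in live THP-1 cells: cysteine peptides tagged with an iodoacetamide desthiobiotin (IA-DTB) probe, intensity after compound treatment relative to DMSO-treated cells.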
Target,probe-labelled cysteine peptide fold change (10 µM),probe-labelled cysteine peptide fold change (50 µM)
GRN_P28799_165+171_VHCCPHGAFCDLVHTR (UniProt P28799),0.144,-0.0654
HAT1_O14929_27_CNTNTAIELK (UniProt O14929),-0.134,-0.075
H6PD_O95479_623_CVPLSDPESNFQGLQAHLLQHVR (UniProt O95479),0.0238,0.0929
GRWD1_Q9BQ67_11_TCETGEPMEAESGDTSSEGPAQVYLPGR (UniProt Q9BQ67),-0.0106,-0.148
HARS_P12081_235_TICSSVDK (UniProt P12081),0.0663,-0.144
GRPEL1_Q9HAV7_108_LYGIQAFCK (UniProt Q9HAV7),-0.0324,0.00756
HAGH_Q16775_157+164_CLATPCHTSGHICYFVSK (UniProt Q16775),0.228,0.406
GPT2_Q8TD30_311_LFLLADEVYQDNVYSPDCR (UniProt Q8TD30),0.00843,-0.16
GRWD1_Q9BQ67_66_AQTGAPCLSFDIVR (UniProt Q9BQ67),0.302,-0.137
HARS2_P49590_274_IGDYVQCHGGVSLVEQMFQDPR (UniProt P49590),-0.0884,-0.182
GRHPR_Q9UBQ7_288_NCVILPHIGSATHR (UniProt Q9UBQ7),0.293,0.0427
GSDMD_P57764_268_CLHNFLTDGVPAEGAFTEDFQGLRAEVETISK (UniProt P57764),0.695,-0.887
GSE1_Q14687_1199_CLALPAMHWPR (UniProt Q14687),0.254,0.135
HADHA_P40939_747_QFTPCQLLADHANSPNK (UniProt P40939),-0.314,0.0963
GTPBP2_Q9BX10_36_GAGSSSGCGGPK (UniProt Q9BX10),-0.243,-0.567
GSS_P48637_409_IEPEPFENCLLRPGSPAR (UniProt P48637),-0.136,-0.000102
GSS_P48637_409_IEPEPFENCLLR (UniProt P48637),-0.0768,0.184
HADH_Q16836_211_HPVSCK (UniProt Q16836),-0.0183,0.126
GRK2_P25098_559_DCIMHGYMSK (UniProt P25098),-0.212,-0.433
GRAMD1B_Q3KR37_460_ASQESECYVIDAEVLTHDVPYHDYFYTINR (UniProt Q3KR37),-0.242,0.0555
H2AFY_O75367_297_NCLALADDKK (UniProt O75367),0.106,0.0661
GTF3C2_Q8WUA4_291_QKPHCR (UniProt Q8WUA4),-0.279,-0.824

Target,probe-labelled cysteine peptide fold change (10 µM),probe-labelled cysteine peptide fold change (50 µM)
GTF3C1_Q12789_136_CTMVEAFDR (UniProt Q12789),0.0593,-0.0506
HADH_Q16836_211_ALGKHPVSCK (UniProt Q16836),-0.467,-0.98
GTF2H3_Q13889_255_AACFCHR (UniProt Q13889),0.0418,0.0292
HADHB_P55084_458_EGGQYGLVAACAAGGQGHAMIVEAYPK (UniProt P55084),-0.039,-0.29
HAUS6_Q7Z4H7_32_EHLWMYLQALGFEPGPATIACGK (UniProt Q7Z4H7),-0.00813,-0.143
GSTCD_Q8NEC7_449_IVDFCSGGGHVGIVLAHMLPSCQVTLIENK (UniProt Q8NEC7),0.0895,-0.0866
GSTM4_Q03013_174_IFEPNCLDAFPNLK (UniProt Q03013),0.162,0.311
GTF2E1_P29083_157_CTFCHTEVEEDESAMPK (UniProt P29083),0.0528,-0.0736
GTF3C1_Q12789_1999_VVDGHLNLPVCK (UniProt Q12789),-0.0557,-0.136
HBS1L_Q9Y450_84_LYSCLDHMR (UniProt Q9Y450),0.0793,-0.0662
GTSF1_Q8WW33_71_AEISHHISSCDDR (UniProt Q8WW33),0.0863,-0.0663
GSDME_O60443_156_NEVLCVLTQK (UniProt O60443),-0.0438,-0.0317
GSR_P00390_467_MVCANKEEK (UniProt P00390),0.0276,-0.195
GSTM3_P21266_3_SCESSMVLGYWDIR (UniProt P21266),-0.2,-0.351
GTSF1_Q8WW33_76_SCIEQDVVNQTR (UniProt Q8WW33),0.111,-0.155
GRN_P28799_178_CITPTGTHPLAK (UniProt P28799),-0.279,-0.341
GSK3B_P49841_317_TPPEAIALCSR (UniProt P49841),-0.0812,0.0559
GSR_P00390_484_VVGIHMQGLGCDEMLQGFAVAVK (UniProt P00390),0.071,0.0314
HAGHL_Q6PII5-2_248_AVPADVLEALCK (UniProt Q6PII5),-0.407,-0.341
GRK2_P25098_120_ELLACSHPFSK (UniProt P25098),-0.194,-0.509
H6PD_O95479_86_ALESLSCPK (UniProt O95479),-0.122,-0.0298
GRK6_P43250_425_SLCSQLLCK (UniProt P43250),-0.224,-0.00244

Target,probe-labelled cysteine peptide fold change (10 µM),probe-labelled cysteine peptide fold change (50 µM)
GSDMD_P57764_191_FSLPGATCLQGEGQGHLSQKK (UniProt P57764),-0.00104,-0.614
H2AFY_O75367_297_NCLALADDK (UniProt O75367),0.0778,-0.00756
GSTCD_Q8NEC7_592_QCMCLVDLDR (UniProt Q8NEC7),-0.0108,-0.398
HAUS3_Q68CZ6_3_SCGNEFVETLK (UniProt Q68CZ6),0.0135,0.066
GTSF1_Q8WW33_17_LLQCPYDK (UniProt Q8WW33),-0.0775,-0.132
GTF2H3_Q13889_142_ALCYIHR (UniProt Q13889),0.00116,0.0865
HAGHL_Q6PII5_188_VEPCNDHVR (UniProt Q6PII5),0.0181,0.0303
GRK2_P25098_439_RLGCLGR (UniProt P25098),-0.198,-0.117
HARS_P12081_379_VPCVGLSIGVER (UniProt P12081),-0.017,0.285
GRIPAP1_Q4V328-2_502_EAEGKEEELQDVRDQLEQAQEERDCHLK (UniProt Q4V328),-0.101,-0.725
GSDME_O60443_168_CVISEHMQVEEK (UniProt O60443),-0.0652,-0.091
GRN_P28799_481_QHCCPAGYTCNVK (UniProt P28799),-0.217,-0.32
GYS1_P13807_214_YLCAGAVDFYNNLENFNVDK (UniProt P13807),0.107,0.121
HAT1_O14929_101_VDENFDCVEADDVEGK (UniProt O14929),-0.209,-0.64
GSPT1_P15170_464_TAGTICLETFK (UniProt P15170),0.00954,0.0941
GSTK1_Q9Y2Q3_176_ETTEAACR (UniProt Q9Y2Q3),-0.157,0.101
HARS_P12081_224_ILDGMFAICGVSDSK (UniProt P12081),0.0309,-0.174
HADHA_P40939_349_ALMGLYHGQVLCKK (UniProt P40939),-0.265,-0.573
GRB2_P62993_198_GACHGQTGMFPR (UniProt P62993),0.097,0.0467
GTF3C4_Q9UKN8_129_TEVAECK (UniProt Q9UKN8),-0.292,0.0341
GSN_P06396_331_SEDCFILDHGK (UniProt P06396),0.0864,-0.0241
GSTM1_P09488_78_ITQSNAILCYIAR (UniProt P09488),-0.0762,-0.286

Target,probe-labelled cysteine peptide fold change (10 µM),probe-labelled cysteine peptide fold change (50 µM)
HADHA_P40939_747_QFTPCQLLADHANSPNKK (UniProt P40939),-0.211,-0.236
HAUS4_Q9H6D7_213_LAEVLVGEQQQCQDAK (UniProt Q9H6D7),-0.0337,0.0347
HAGH_Q16775_219_VYCGHEYTINNLK (UniProt Q16775),-0.00388,0.0301
GYS1_P13807_575_SLDDSCSQLTSFLYSFCQQSR (UniProt P13807),0.357,-0.227
GTF2H1_P32780_478_HFWSCFPVNTPFLEEK (UniProt P32780),0.349,0.511
GSTP1_P09211_48_ASCLYGQLPK (UniProt P09211),0.0629,0.0278
GTF2F2_P13984_116_AECRPAASENYMR (UniProt P13984),-0.162,-0.16
GTF3C1_Q12789_544_ACQSLASR (UniProt Q12789),-0.312,-0.43
GPX4_P36969_134_ICVNGDDAHPLWK (UniProt P36969),0.449,0.437
HAUS6_Q7Z4H7_662_VISDCECVPQK (UniProt Q7Z4H7),0.0385,-0.547
GTF2B_Q00403_34_AGDMICPECGLVVGDR (UniProt Q00403),0.179,0.198
HAUS2_Q9NVX0_43_TVSCFVNFTR (UniProt Q9NVX0),-0.00828,0.128
GTPBP4_Q9BZE4_174_TLLLCGYPNVGK (UniProt Q9BZE4),0.0273,0.00405
GTSF1_Q8WW33_100+103_QETLAESTWQCPPCDEDWDK (UniProt Q8WW33),-0.372,-0.0365
GTF2IRD1_Q9UHL9_277_QEAPSCPLAPSDLGLSR (UniProt Q9UHL9),-0.108,-0.849
GTF3C5_Q9Y5Q8_432_NDGAENSCTER (UniProt Q9Y5Q8),-0.242,0.262
GTF2A2_P52657_98_IVACDGK (UniProt P52657),-0.17,-0.0648
GSPT1_P15170_387_GIEEEEILPGFILCDPNNLCHSGR (UniProt P15170),-0.00174,0.15
GTF3C2_Q8WUA4_608_LYPFQCFLAHDQAVR (UniProt Q8WUA4),-0.104,0.0288
GSDMD_P57764_467_MCALYASLALLSGLSQEPH (UniProt P57764),0.184,0.155
HARS2_P49590_84_ILDLVISCFK (UniProt P49590),-0.204,-0.834

# Source: the supplement of paper PMC12067093, “Discovery and optimisation of a covalent ligand for TRIM25 and its application to targeted protein ubiquitination” (Chemical Science, 2025)
